# Results published in the supplement of paper PMC10849652.
# Amino acid sequences for entries named in this document (tags omitted). A change or cut given only in a name is not applied to a line headed by its entry.
# UniProt Q9H7F0: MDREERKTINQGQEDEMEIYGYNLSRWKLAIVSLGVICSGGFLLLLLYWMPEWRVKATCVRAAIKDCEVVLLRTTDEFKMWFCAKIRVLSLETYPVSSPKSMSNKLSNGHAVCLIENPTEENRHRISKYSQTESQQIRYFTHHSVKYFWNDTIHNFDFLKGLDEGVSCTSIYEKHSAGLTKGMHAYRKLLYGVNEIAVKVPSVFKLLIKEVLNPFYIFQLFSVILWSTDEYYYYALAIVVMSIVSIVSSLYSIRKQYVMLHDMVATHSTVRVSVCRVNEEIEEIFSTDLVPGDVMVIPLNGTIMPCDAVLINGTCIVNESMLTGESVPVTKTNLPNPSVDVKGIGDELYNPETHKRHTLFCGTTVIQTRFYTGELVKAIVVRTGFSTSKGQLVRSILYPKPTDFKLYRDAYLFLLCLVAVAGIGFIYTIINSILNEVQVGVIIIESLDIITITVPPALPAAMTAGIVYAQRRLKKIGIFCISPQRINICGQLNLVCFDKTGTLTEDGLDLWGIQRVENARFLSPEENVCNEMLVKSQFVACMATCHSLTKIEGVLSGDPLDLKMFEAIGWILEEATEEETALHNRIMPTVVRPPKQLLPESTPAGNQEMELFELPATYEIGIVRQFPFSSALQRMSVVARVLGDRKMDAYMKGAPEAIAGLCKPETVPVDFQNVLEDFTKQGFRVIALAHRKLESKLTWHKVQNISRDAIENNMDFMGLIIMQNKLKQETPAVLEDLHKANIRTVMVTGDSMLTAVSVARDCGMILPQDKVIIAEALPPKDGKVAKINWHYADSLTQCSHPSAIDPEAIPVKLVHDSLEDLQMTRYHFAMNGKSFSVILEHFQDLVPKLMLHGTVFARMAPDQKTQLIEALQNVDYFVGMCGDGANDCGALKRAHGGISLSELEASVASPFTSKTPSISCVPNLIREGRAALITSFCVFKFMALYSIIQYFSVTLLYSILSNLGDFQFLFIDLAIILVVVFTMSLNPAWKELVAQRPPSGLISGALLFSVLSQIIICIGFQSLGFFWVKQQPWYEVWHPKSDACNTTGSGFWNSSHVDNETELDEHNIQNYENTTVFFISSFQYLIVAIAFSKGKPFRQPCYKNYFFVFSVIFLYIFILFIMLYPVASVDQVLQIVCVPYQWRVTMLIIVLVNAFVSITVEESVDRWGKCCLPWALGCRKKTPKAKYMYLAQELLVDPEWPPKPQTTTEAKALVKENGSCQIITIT
# UniProt P98194: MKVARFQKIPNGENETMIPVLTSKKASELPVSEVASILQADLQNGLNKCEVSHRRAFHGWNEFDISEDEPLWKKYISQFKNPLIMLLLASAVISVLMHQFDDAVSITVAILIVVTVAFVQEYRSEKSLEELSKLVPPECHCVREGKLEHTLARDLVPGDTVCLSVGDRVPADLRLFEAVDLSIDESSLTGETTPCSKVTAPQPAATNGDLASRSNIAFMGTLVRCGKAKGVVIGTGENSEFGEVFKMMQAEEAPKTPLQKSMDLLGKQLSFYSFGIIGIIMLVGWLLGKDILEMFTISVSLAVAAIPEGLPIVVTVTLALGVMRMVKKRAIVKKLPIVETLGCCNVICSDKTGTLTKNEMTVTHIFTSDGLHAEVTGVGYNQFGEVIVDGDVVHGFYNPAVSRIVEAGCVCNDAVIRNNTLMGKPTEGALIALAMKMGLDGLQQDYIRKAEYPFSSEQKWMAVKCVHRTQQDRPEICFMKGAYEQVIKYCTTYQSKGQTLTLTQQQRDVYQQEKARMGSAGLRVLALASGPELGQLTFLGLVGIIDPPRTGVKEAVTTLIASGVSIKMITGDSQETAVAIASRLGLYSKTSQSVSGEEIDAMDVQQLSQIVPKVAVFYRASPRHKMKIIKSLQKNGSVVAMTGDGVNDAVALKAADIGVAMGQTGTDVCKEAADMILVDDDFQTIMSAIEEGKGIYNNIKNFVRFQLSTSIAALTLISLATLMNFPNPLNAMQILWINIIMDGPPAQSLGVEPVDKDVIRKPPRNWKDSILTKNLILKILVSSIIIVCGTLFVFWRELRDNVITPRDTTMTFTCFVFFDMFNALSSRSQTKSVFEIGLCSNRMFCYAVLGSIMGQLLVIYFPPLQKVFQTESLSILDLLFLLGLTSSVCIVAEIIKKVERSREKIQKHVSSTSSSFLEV
# UniProt Q12797: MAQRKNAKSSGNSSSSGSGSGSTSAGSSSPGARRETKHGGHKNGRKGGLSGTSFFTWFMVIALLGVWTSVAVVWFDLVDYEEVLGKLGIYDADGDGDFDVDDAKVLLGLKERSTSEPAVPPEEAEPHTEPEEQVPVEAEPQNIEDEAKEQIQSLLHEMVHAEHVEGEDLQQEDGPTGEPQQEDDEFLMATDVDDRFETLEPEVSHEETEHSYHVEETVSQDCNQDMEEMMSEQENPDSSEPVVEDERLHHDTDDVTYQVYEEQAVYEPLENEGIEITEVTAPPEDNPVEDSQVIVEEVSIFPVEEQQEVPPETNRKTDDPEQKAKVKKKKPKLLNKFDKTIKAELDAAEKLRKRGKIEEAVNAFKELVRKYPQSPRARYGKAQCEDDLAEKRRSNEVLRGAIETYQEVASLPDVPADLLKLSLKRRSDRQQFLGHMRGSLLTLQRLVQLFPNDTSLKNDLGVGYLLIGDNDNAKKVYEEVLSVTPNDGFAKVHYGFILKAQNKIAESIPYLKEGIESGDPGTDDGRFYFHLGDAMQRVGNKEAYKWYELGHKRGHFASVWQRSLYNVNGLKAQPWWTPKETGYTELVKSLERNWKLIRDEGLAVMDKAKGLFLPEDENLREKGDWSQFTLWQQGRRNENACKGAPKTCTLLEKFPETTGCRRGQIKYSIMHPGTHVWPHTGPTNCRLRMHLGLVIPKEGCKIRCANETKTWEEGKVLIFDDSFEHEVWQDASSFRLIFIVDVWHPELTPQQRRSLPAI
# UniProt P56378: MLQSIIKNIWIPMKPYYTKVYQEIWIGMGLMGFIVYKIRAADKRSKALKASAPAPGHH
# UniProt O95260: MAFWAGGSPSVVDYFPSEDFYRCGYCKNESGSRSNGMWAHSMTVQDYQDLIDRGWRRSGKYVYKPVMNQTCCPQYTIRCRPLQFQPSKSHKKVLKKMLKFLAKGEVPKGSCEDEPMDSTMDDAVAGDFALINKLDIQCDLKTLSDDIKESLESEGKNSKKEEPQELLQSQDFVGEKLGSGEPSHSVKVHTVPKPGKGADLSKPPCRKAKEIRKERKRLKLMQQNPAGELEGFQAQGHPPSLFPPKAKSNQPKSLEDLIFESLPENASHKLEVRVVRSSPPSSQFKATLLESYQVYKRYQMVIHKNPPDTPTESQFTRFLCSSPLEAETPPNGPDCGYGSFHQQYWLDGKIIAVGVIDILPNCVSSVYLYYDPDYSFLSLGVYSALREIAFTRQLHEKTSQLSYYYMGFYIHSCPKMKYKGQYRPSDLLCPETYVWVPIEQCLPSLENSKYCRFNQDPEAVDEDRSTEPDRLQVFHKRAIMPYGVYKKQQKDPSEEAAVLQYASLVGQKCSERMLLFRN
# UniProt Q9NWX5: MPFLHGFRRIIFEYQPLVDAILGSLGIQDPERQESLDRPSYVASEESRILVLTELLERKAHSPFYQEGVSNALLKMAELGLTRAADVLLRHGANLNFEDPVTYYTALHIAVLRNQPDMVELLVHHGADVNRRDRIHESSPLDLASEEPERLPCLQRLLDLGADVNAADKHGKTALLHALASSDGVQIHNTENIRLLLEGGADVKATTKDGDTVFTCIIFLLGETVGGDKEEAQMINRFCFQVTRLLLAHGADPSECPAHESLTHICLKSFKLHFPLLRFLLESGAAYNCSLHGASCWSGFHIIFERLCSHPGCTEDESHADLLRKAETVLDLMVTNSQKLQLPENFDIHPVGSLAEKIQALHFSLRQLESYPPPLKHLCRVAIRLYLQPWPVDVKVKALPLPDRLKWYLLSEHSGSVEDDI
# UniProt Q8NB49: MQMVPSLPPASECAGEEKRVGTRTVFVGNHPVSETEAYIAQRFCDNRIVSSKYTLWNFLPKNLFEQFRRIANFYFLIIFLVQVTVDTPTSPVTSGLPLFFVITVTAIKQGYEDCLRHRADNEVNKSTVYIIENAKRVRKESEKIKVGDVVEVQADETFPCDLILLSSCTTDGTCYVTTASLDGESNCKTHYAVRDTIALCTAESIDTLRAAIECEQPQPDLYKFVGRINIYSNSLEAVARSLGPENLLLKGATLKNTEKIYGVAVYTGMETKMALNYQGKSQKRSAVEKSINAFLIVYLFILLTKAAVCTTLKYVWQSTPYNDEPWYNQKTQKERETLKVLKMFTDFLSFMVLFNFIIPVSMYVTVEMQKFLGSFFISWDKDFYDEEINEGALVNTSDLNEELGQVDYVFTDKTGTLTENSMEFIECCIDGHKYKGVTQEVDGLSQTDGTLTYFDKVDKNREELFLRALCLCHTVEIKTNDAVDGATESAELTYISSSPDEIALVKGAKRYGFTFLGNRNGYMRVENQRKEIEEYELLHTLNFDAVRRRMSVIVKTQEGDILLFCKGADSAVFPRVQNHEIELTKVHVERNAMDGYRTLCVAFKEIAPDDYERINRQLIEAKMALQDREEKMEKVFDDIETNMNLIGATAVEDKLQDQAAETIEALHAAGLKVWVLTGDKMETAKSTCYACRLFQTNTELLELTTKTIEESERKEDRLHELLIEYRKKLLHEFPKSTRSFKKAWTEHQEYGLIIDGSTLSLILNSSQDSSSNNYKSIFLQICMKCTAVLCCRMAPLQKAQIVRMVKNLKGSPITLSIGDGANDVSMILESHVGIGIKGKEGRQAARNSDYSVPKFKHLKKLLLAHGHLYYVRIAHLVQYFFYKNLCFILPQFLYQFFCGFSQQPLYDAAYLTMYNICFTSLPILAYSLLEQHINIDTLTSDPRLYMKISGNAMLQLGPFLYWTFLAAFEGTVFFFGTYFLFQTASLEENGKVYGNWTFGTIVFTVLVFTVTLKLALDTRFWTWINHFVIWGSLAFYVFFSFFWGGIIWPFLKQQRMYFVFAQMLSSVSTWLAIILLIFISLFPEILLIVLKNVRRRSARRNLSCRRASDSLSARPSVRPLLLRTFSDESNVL
# UniProt Q9NY97: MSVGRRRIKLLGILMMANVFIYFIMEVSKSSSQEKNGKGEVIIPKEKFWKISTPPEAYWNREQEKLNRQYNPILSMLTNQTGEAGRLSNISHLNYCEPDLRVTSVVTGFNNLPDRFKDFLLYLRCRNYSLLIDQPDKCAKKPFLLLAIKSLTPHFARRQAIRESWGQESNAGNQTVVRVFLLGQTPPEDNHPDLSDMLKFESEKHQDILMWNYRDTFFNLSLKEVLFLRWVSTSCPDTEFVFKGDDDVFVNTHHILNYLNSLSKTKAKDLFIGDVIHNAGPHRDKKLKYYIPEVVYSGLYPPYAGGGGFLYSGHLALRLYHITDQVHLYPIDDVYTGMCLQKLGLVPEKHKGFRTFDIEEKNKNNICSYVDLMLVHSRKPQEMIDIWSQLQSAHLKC
# UniProt O43861: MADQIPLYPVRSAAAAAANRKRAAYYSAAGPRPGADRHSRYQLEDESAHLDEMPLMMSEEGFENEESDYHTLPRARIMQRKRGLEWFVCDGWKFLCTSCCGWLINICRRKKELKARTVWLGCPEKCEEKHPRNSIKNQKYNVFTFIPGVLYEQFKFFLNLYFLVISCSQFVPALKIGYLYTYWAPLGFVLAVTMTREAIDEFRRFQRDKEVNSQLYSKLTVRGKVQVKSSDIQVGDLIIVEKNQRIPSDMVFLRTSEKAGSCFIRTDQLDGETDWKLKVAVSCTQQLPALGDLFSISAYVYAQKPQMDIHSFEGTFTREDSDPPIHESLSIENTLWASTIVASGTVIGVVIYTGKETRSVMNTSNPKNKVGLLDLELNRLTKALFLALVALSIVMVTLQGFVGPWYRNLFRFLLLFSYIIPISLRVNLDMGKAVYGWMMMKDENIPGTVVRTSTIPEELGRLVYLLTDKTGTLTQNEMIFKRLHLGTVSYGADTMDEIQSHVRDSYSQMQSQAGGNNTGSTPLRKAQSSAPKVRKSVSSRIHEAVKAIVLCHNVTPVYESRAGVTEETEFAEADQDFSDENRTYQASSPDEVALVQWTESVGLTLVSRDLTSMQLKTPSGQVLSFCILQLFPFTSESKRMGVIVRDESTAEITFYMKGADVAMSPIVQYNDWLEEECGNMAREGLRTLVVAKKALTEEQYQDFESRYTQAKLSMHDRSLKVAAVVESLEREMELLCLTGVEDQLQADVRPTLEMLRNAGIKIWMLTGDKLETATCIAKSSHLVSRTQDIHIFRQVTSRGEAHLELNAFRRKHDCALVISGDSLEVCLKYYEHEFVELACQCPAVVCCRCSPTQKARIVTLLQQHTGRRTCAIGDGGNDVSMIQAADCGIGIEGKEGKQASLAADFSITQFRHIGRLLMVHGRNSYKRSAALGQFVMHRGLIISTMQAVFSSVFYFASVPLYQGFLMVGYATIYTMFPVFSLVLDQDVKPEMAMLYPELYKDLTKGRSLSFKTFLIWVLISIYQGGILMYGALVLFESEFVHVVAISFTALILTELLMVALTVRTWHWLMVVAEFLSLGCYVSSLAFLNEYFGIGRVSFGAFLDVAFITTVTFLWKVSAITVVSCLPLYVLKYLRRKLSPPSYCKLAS
# This is one part of the list.
# Compound: NCC(=O)Nc1ccc(-n2nc(C(F)(F)F)cc2-c2ccc3c(ccc4ccccc43)c2)cc1
# Experiment: log2 fold change, soluble protein after heating vs DMSO (PISA); higher = thermal stabilisation; K562 lysate, 10 uM; active = over 0.2 and 3.5 SD of the protein, either way, in both replicates (recomputed)
# Method in brief: (§1)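 Pellets of K562 cells were dounce-homogenised in PBS pH 7.4 with 1 mM MgCl2, and the crude extract was held at 1 mg/mL protein for a 30 min treatment with 10 μM compound. Aliquots were heated for 3 min over 48°C-58°C and pooled before NP-40 was added to 0.5% at 4°C. The supernatant from 21,000xg for 90 min was quantified by TMTpro 16plex LC-MS/MS with channel sums equalised. Values are reported from duplicates as log-two fold change in thermal stability relative to solvent controls.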
row,Target,log2 fold change
1,ATXN2 (UniProt Q99700),inactive: 0.024
2,ATP13A3 (UniProt Q9H7F0),inactive: -0.082
3,ATG9A (UniProt Q7Z3C6),inactive: -0.026
4,ATP6V1D (UniProt Q9Y5K8),inactive: -0.042
5,ATP2C1 isoform 7 (UniProt P98194),inactive: 0.199
6,ASCC2 (UniProt Q9H1I8),inactive: -0.008
7,AURKB isoform 5 (UniProt Q96GD4),inactive: -0.035
8,ASPH (UniProt Q12797),inactive: 0
9,ATXN7L3B (UniProt Q96GX2),inactive: -0.012
10,ATG4B (UniProt Q9Y4P1),inactive: -0.009
11,ATG3 (UniProt Q9NT62),inactive: -0.038
12,ATP5F1B (UniProt P06576),inactive: 0.006
13,ATP5MPL (UniProt P56378),inactive: -0.103
14,ATP6V0D1 (UniProt P61421),inactive: -0.167
15,ATP6V1F isoform 2 (UniProt Q16864),inactive: 0.055
16,ATP5IF1 (UniProt Q9UII2),inactive: 0.05
17,ATP2B4 (UniProt P23634),inactive: -0.026

row,Target,log2 fold change
1,ATE1 isoform 2 (UniProt O95260),inactive: -0.068
2,ATP23 (UniProt Q9Y6H3),inactive: -0.154
3,ATG4C (UniProt Q96DT6),inactive: -0.017
4,ASB6 (UniProt Q9NWX5),inactive: 0.116
5,ATG4A (UniProt Q8WYN0),inactive: -0.059
6,ASCC1 isoform 2 (UniProt Q8N9N2),inactive: 0.029
7,ATAD1 (UniProt Q8NBU5),inactive: -0.047
8,ATP1A4 (UniProt Q13733),inactive: -0.014
9,ASMTL (UniProt O95671),inactive: -0.013
10,AUNIP isoform 2 (UniProt Q9H7T9),inactive: 0.023
11,ATXN3 isoform 1 (UniProt P54252),inactive: 0.008
12,ATP11C (UniProt Q8NB49),inactive: -0.019
13,ATP5MF-PTCD1 (UniProt G3V325),inactive: 0.002
14,B3GNT2 (UniProt Q9NY97),inactive: 0.031
15,ATP6AP1 (UniProt Q15904),inactive: -0.032
16,ATP9B (UniProt O43861),inactive: 0.013

# Compound: O=C(CCCCCCC(=O)Nc1ccccc1)NO [vorinostat]
# Experiment: as above
# Method in brief: as §1
row,Target,log2 fold change
1,ATXN2 (UniProt Q99700),active: -0.282
2,ATP13A3 (UniProt Q9H7F0),inactive: 0
3,ATG9A (UniProt Q7Z3C6),inactive: 0.013
4,ATP6V1D (UniProt Q9Y5K8),inactive: 0.125
5,ATP2C1 isoform 7 (UniProt P98194),inactive: 0.092
6,ASCC2 (UniProt Q9H1I8),inactive: -0.048
7,AURKB isoform 5 (UniProt Q96GD4),inactive: -0.061
8,ASPH (UniProt Q12797),inactive: 0.131
9,ATXN7L3B (UniProt Q96GX2),inactive: 0.077
10,ATG4B (UniProt Q9Y4P1),active: -0.274
11,ATG3 (UniProt Q9NT62),inactive: 0.004
12,ATP5F1B (UniProt P06576),inactive: 0.124
13,ATP5MPL (UniProt P56378),inactive: 0.077
14,ATP6V0D1 (UniProt P61421),inactive: 0.13
15,ATP6V1F isoform 2 (UniProt Q16864),inactive: -0.06
16,ATP5IF1 (UniProt Q9UII2),inactive: 0.146
17,ATP2B4 (UniProt P23634),inactive: -0.042

row,Target,log2 fold change
1,ATE1 isoform 2 (UniProt O95260),active: -0.444
2,ATP23 (UniProt Q9Y6H3),inactive: -0.008
3,ATG4C (UniProt Q96DT6),inactive: 0.034
4,ASB6 (UniProt Q9NWX5),inactive: -0.005
5,ATG4A (UniProt Q8WYN0),active: -0.543
6,ASCC1 isoform 2 (UniProt Q8N9N2),inactive: -0.225
7,ATAD1 (UniProt Q8NBU5),active: -0.617
8,ATP1A4 (UniProt Q13733),inactive: 0.052
9,ASMTL (UniProt O95671),inactive: -0.122
10,AUNIP isoform 2 (UniProt Q9H7T9),inactive: -0.219
11,ATXN3 isoform 1 (UniProt P54252),inactive: 0.05
12,ATP11C (UniProt Q8NB49),inactive: 0.072
13,ATP5MF-PTCD1 (UniProt G3V325),inactive: 0.074
14,B3GNT2 (UniProt Q9NY97),inactive: 0.182
15,ATP6AP1 (UniProt Q15904),inactive: 0.11
16,ATP9B (UniProt O43861),inactive: 0.012

# Compound: O=C(O)c1ccc2c(c1)nc(Nc1cccc(Cl)c1)c1ccncc12 [silmitasertib]
# Experiment: as above
# Method in brief: as §1
row,Target,log2 fold change
1,ATXN2 (UniProt Q99700),inactive: -0.01
2,ATP13A3 (UniProt Q9H7F0),inactive: 0.056
3,ATG9A (UniProt Q7Z3C6),inactive: 0.034
4,ATP6V1D (UniProt Q9Y5K8),inactive: -0.002
5,ATP2C1 isoform 7 (UniProt P98194),inactive: 0.082
6,ASCC2 (UniProt Q9H1I8),inactive: 0.077
7,AURKB isoform 5 (UniProt Q96GD4),inactive: -0.082
8,ASPH (UniProt Q12797),inactive: -0.008
9,ATXN7L3B (UniProt Q96GX2),inactive: -0.048
10,ATG4B (UniProt Q9Y4P1),inactive: 0.043
11,ATG3 (UniProt Q9NT62),inactive: 0.014
12,ATP5F1B (UniProt P06576),inactive: -0.006
13,ATP5MPL (UniProt P56378),inactive: 0.034
14,ATP6V0D1 (UniProt P61421),inactive: 0
15,ATP6V1F isoform 2 (UniProt Q16864),inactive: 0.021
16,ATP5IF1 (UniProt Q9UII2),inactive: -0.025
17,ATP2B4 (UniProt P23634),inactive: -0.003

row,Target,log2 fold change
1,ATE1 isoform 2 (UniProt O95260),inactive: 0.041
2,ATP23 (UniProt Q9Y6H3),inactive: -0.034
3,ATG4C (UniProt Q96DT6),inactive: 0.047
4,ASB6 (UniProt Q9NWX5),inactive: -0.057
5,ATG4A (UniProt Q8WYN0),inactive: 0.034
6,ASCC1 isoform 2 (UniProt Q8N9N2),inactive: 0.052
7,ATAD1 (UniProt Q8NBU5),inactive: 0.021
8,ATP1A4 (UniProt Q13733),inactive: 0.024
9,ASMTL (UniProt O95671),inactive: 0.002
10,AUNIP isoform 2 (UniProt Q9H7T9),inactive: -0.009
11,ATXN3 isoform 1 (UniProt P54252),inactive: -0.03
12,ATP11C (UniProt Q8NB49),inactive: 0.014
13,ATP5MF-PTCD1 (UniProt G3V325),inactive: 0.047
14,B3GNT2 (UniProt Q9NY97),inactive: 0.015
15,ATP6AP1 (UniProt Q15904),inactive: -0.04
16,ATP9B (UniProt O43861),inactive: 0.005
